For assay [1], the target named is Gal4 DB-Skp1 fusion protein (yeast; human) (UniProt P04386+P63208). Put plainly: yeast two-hybrid, Gal4 DB-Skp1 bait, Gal4 AD T-cell cDNA library prey, three reporter assays. (In general: In a reporter assay the amount or activity of a reporter protein is the signal.)
A further assay has as its target His-tagged Skp1 (human) (UniProt P63208). Put plainly: pull-down of in vitro translated 35S-FBP on His-Skp1 Nickel-agarose beads, autoradiography.
Assay [2] concerns the target human Skp1 (endogenous, HeLa cells) (human) (UniProt P63208). Put plainly: anti-Flag co-immunoprecipitation from transfected HeLa cells, immunoblot. For orientation: Immunoblotting shows a protein as a band on a membrane.
Assay [3] shares this target. Put plainly: anti-Flag co-immunoprecipitation from transfected HeLa cells, immunoblot; endogenous partner.

Sequences of proteins named here, by UniProt entry; tags and fusion partners are left off. A change or cut given only in a name is not applied to a line headed by its entry. Residues count along the entry.
UniProt P04386: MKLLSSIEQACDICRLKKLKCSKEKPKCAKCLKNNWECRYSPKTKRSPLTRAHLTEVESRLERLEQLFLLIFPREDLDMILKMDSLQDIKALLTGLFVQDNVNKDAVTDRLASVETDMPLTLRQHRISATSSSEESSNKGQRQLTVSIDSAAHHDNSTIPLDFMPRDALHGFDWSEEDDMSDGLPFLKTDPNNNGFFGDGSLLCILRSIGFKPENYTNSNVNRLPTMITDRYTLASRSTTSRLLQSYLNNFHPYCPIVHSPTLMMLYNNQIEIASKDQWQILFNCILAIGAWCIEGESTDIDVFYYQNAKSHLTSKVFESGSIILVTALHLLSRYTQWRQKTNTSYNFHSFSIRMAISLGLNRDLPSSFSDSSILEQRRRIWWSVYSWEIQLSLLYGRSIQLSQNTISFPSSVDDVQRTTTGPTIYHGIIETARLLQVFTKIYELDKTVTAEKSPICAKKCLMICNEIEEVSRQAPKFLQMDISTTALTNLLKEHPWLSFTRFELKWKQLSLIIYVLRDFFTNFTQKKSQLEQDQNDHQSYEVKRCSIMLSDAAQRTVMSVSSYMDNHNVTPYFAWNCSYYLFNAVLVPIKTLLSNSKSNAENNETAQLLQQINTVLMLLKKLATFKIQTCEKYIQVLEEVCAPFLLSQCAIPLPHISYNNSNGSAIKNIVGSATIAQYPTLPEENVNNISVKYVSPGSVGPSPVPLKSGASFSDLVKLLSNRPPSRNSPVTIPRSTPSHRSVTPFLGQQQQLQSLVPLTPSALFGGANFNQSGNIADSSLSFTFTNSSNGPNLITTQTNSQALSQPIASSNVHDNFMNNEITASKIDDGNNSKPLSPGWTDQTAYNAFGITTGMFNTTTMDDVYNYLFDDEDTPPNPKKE
UniProt P63208: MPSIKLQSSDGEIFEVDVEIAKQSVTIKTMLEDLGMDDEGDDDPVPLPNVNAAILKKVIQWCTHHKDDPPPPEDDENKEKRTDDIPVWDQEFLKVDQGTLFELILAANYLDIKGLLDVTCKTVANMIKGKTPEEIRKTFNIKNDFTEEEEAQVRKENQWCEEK
human Skp1 (endogenous, HeLa cells): residues 2-163 of P63208

These are yes or no findings as the source states them, for the method shown. For part of these data: Binding seen in cells or lysates may run through a third protein. Some binding calls cover weakened binding; strength is not graded here. For part of these data: Sequences can lack the tags named with a protein.

B1: human F-box protein FBP3a (protein)
chain: MKRGGRDSDRNSSEEGTAEKSKKLRTTNEHSQTCDWGNLLQDIILQVFKYLPLLDRAHASQVCRNWNQVFHMPDLWRCFEFELNQPATSYLKATHPELIKQIIKRHSNHLQYVSFKVDSSKESAEAACDILSQLVNCSLKTLGLISTARPSFMDLPKSHFISALTVVFVNSKSLSSLKIDDTPVDDPSLKVLVANNSDTLKLLKMSSCPHVSPAGILCVADQCHGLRELALNYHLLSDELLLALSSEKHVRLEHLRIDVVSENPGQTHFHTIQKSSWDAFIRHSPKVNLVMYFFLYEEEFDPFFRYEIPATHLYFGRSVSKDVLGRVGMTCPRLVELVVCANGLRPLDEELIRIAERCKNLSAIGLGECEVSCSAFVEFVKMCGGRLSQLSIMEEVLIPDQKYSLEQIHWEVSKHLGRVWFPDMMPTW
In the case of B1, the binding entry (in assay [1]; in the assay with His-tagged Skp1 (human)) was “binds” each time.

B2: Flag-tagged FBP3a (protein, not shown: small tags and cut ends)
chain: B1 chain
Take B2: the binding entry in assay [2] and in assay [3] was “binds” in each case.

B3: Flag-tagged FBP2 (protein, not shown: small tags and cut ends)
chain: MERKDFETWLDNISVTFLSLTDLQKNETLDHLISLSGAVQLRHLSNNLETLLKRDFLKLLPLELSFYLLKWLDPQTLLTCCLVSKQWNKVISACTEVWQTACKNLGWQIDDSVQDALHWKKVYLKAILRMKQLEDHEAFETSSLIGHSARVYALYYKDGLLCTGSDDLSAKLWDVSTGQCVYGIQTHTCAAVKFDEQKLVTGSFDNTVACWEWSSGARTQHFRGHTGAVFSVDYNDELDILVSGSADFTVKVWALSAGTCLNTLTGHTEWVTKVVLQKCKVKSLLHSPGDYILLSADKYEIKIWPIGREINCKCLKTLSVSEDRSICLQPRLHFDGKYIVCSSALGLYQWDFASYDILRVIKTPEIANLALLGFGDIFALLFDNRYLYIMDLRTESLISRWPLPEYRESKRGSSFLAGEHPG
For B3, the binding entry in assay [2] and in assay [3] was “binds” throughout.

B4: human F-box protein FBP2 (protein)
chain: B3 chain
Consider B4, for which the binding result (in assay [1]; with His-tagged Skp1 (human)) was “binds” in each case.

B5: human F-box protein FBP5 (protein)
chain: MSRRPCSCALRPPRCSCSASPSAVTAAGRPRPSDSCKEESSTLSVKMKCDFNCNHVHSGLKLVKPDDIGRLVSYTPAYLEGSCKDCIKDYERLSCIGSPIVSPRIVQLETESKRLHNKENQHVQQTLNSTNEIEALETSRLYEDSGYSSFSLQSGLSEHEEGSLLEENFGDSLQSCLLQIQSPDQYPNKNLLPVLHFEKVVCSTLKKNAKRNPKVDREMLKEIIARGNFRLQNIIGRKMGLECVDILSELFRRGLRHVLATILAQLSDMDLINVSKVSTTWKKILEDDKGAFQLYSKAIQRVTENNNKFSPHASTREYVMFRTPLASVQKSAAQTSLKKDAQTKLSNQGDQKGSTYSRHNEFSEVAKTLKKNESLKACIRCNSPAKYDCYLQRATCKREGCGFDYCTKCLCNYHTTKDCSDGKLLKASCKIGPLPGTKKSKKNLRRL
Consider B5, for which, in the assay with His-tagged Skp1 (human), the binding entry was “binds”.
